{
  "source": "patent US10709135B2",
  "about": "“Organophosphates for treating afflictions of the skin” (priority 2013, dated 2020)",
  "test_system": "rosacea",
  "assay": "Prior treatments of rosacea in Patient 1",
  "type": "in vivo, human",
  "details": "Patient 1, treatment history",
  "note": "At least one compound was matched to its structure with a doubt left.",
  "data": [
    {"smiles": "CN(C)[C@@H]1C(O)=C(C(N)=O)C(=O)[C@@]2(O)C(O)=C3C(=O)c4c(O)cccc4[C@@](C)(O)[C@H]3C[C@@H]12", "note": "[tetracycline]", "values": [
      {"measurement": "Response of rosacea symptoms to prior treatment", "result": "limited success"}
    ]}
  ]
}
